PMC10740027

By UniProt entry, the sequences of proteins in these tests, tags left out. Residues count along the entry.
UniProt P19474: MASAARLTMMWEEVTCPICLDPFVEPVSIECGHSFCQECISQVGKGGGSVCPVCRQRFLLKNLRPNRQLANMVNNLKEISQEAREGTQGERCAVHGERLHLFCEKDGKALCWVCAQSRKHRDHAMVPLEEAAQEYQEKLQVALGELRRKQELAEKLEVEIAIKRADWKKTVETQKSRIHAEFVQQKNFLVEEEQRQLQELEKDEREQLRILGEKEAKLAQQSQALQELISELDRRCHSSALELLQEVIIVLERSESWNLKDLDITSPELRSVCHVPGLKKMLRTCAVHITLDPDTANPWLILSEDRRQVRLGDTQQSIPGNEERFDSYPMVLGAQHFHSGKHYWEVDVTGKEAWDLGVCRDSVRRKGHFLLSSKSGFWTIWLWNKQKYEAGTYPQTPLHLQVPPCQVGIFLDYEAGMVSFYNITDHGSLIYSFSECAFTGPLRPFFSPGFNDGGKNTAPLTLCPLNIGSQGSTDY
UniProt Q10589, residues 1-161: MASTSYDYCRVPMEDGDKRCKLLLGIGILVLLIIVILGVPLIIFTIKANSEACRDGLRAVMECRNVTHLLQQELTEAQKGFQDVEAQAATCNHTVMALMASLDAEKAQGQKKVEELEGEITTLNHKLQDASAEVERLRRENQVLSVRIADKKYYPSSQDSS

B1: interferon-induced protein with tetratricopeptide repeats 3 (IFIT3) (protein, UniProt O14879 1-490)
chain: MSEVTKNSLEKILPQLKCHFTWNLFKEDSVSRDLEDRVCNQIEFLNTEFKATMYNLLAYIKHLDGNNEAALECLRQAEELIQQEHADQAEIRSLVTWGNYAWVYYHLGRLSDAQIYVDKVKQTCKKFSNPYSIEYSELDCEEGWTQLKCGRNERAKVCFEKALEEKPNNPEFSSGLAIAMYHLDNHPEKQFSTDVLKQAIELSPDNQYVKVLLGLKLQKMNKEAEGEQFVEEALEKSPCQTDVLRSAAKFYRRKGDLDKAIELFQRVLESTPNNGYLYHQIGCCYKAKVRQMQNTGESEASGNKEMIEALKQYAMDYSNKALEKGLNPLNAYSDLAEFLETECYQTPFNKEVPDAEKQQSHQRYCNLQKYNGKSEDTAVQHGLEGLSISKKSTDKEEIKDQPQNVSENLLPQNAPNYWYLQGLIHKQNGDLLQAAKCYEKELGRLLRDAPSGIGSIFLSASELEDGSEEMGQGAVSSSPRELLSNSEQLN

biological target: T1, Ubiquitin Conjugating Enzyme E2O (UBE2O) (human (endogenous in HCCLM3, Hep-3B, Huh-7)) (UniProt Q9C0C9); experiment: affinity purification with mass spectrometry; immunoprecipitation in HCCLM3 cells with an anti-UBE2O antibody (anti-rabbit IgG as control), samples analysed by mass spectrometry
T1 sequence: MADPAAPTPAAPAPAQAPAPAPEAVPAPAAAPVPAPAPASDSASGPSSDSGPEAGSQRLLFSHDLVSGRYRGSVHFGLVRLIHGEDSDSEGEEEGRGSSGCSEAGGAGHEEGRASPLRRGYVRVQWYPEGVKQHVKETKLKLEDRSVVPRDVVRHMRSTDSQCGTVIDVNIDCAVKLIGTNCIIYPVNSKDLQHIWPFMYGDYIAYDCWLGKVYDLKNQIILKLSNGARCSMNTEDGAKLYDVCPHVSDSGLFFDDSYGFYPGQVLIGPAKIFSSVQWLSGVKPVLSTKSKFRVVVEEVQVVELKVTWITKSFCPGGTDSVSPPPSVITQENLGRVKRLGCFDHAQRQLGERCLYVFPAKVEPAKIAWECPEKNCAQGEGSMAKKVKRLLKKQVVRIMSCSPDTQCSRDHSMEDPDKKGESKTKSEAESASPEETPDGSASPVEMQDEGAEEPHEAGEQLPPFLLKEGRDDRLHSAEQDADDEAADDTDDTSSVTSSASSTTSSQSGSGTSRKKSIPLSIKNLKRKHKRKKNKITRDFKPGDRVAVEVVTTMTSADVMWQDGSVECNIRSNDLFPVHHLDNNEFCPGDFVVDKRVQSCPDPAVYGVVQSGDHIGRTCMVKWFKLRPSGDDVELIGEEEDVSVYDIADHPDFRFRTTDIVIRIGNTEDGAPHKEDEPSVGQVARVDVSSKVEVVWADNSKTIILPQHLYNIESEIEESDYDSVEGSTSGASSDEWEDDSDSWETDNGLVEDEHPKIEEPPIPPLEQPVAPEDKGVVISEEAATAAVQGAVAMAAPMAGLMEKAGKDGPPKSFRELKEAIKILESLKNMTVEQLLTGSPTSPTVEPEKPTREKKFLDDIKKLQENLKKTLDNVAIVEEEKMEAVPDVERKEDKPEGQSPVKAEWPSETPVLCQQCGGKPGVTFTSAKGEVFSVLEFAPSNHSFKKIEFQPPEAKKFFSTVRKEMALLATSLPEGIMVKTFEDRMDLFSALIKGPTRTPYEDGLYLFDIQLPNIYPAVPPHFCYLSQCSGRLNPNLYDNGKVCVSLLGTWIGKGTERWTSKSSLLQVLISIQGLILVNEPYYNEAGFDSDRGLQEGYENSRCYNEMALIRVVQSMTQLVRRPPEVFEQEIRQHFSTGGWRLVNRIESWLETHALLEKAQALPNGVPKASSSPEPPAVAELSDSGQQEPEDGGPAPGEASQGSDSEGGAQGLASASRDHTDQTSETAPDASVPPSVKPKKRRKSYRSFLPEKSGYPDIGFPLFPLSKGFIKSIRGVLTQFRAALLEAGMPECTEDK

binding, binds:
TRIM21 (from UniProt P19474 1-475), BST2 (from UniProt Q10589 1-161), B1

No constants are given. Whether binding was seen depends on the method and setting. Binding seen in cells or lysates may run through a third protein. Here binding means that the protein was enriched with, or labelled near, the bait; the list need not be complete.
